Experimental data: PubChem BioAssay AID1053208 (Peter MacCallum Cancer Centre, 2014)

Screen: 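Synthetic lethal interactions between gene loss and doxorubicin in osteosarcoma cells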 (primary screen)
System: mouse osteosarcoma cells, early-passage culture from an engineered mouse model of fibroblastic bone tumour
Reagent: siRNA pool against mouse genes, 40 nM
Duration: about 120 h (48 h before drug, then 72 h with drug)
Challenge: doxorubicin 100 nM for 72 h, roughly 30-40% inhibitory dose
Detection: 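Viability read as ATP luminescence after 72 h of 100 nM doxorubicin or none, duplicate wells averaged, scaled to non-targeting siRNA, then expressed as robust z-scores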
Direction: viability z-score with doxorubicin and doxorubicin viability vs non-targeting: higher = more viable cells under doxorubicin; viability z-score without drug: higher = more viable cells with knock-down alone; z-score of drug to no-drug ratio: higher = less drug sensitisation by knock-down
Rule for the call: 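a pool counts as active when its viability z-score with doxorubicin is -2 or below and its z-score without drug lies between -2 and 2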
In all, the deposit lists about 17,000 reagents; this is an unselected part. 788 of them (4.7%) were called active. 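Calls rest on z-score classes alone; an extra cut-off of viability at most 70% of control was not applied to them.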

| gene | combined z-score class | viability z-score with doxorubicin | viability z-score without drug | z-score of drug to no-drug ratio | doxorubicin viability vs non-targeting | activity call |
| --- | --- | --- | --- | --- | --- | --- |
| Flrt3 (fibronectin leucine rich transmembrane protein 3) | high cell count with doxorubicin only | 2.02 | 1.52 | 1.12 | 1.12 | inactive |
| Polr2j (polymerase (RNA) II (DNA directed) polypeptide J) | low cell count with and without drug | -3.37 | -2.19 | -2.25 | 0.64 | inactive |
| Lipk (lipase family member K) | no change with or without drug | 0.67 | -0.51 | 1.24 | 1 | inactive |
| Vmn1r183 (vomeronasal 1 receptor 183) | low cell count with doxorubicin only | -2.59 | 1.01 | -3.15 | 0.71 | active |
| 1700018B24Rik (RIKEN cDNA 1700018B24 gene) | no change with or without drug | -0.22 | 1.18 | -0.9 | 0.92 | inactive |
| Smim3 (small integral membrane protein 3) | no change with or without drug | -0.22 | -0.67 | 0.34 | 0.92 | inactive |
| Ncapd2 (non-SMC condensin I complex, subunit D2) | high cell count without drug only | 1.91 | 2.02 | 0.67 | 1.11 | inactive |
| Kdm5a (lysine demethylase 5A) | no change with or without drug | -1.46 | -0.51 | -1.12 | 0.81 | inactive |
| Dnajc7 (DnaJ heat shock protein family (Hsp40) member C7) | no change with or without drug | 1.12 | 0.17 | 1.12 | 1.04 | inactive |
| Prkci (protein kinase C, iota) | no change with or without drug | 0 | 0 | 0.11 | 0.94 | inactive |
| Ifna9 (interferon alpha 9) | no change with or without drug | -0.22 | -1.01 | 0.56 | 0.92 | inactive |
| Tab3 (TGF-beta activated kinase 1/MAP3K7 binding protein 3) | no change with or without drug | 0.79 | 0.84 | 0.34 | 1.01 | inactive |
| Tcaf3 (TRPM8 channel-associated factor 3) | no change with or without drug | -1.57 | 0.84 | -2.02 | 0.8 | inactive |
| Cnpy2 (canopy FGF signaling regulator 2) | low cell count without drug only | -0.45 | -4.55 | 3.82 | 0.9 | inactive |
| Psmc1 (protease (prosome, macropain) 26S subunit, ATPase 1) | low cell count with and without drug | -7.42 | -5.56 | -5.96 | 0.28 | inactive |
| Hadha | no change with or without drug | -1.69 | -0.67 | -1.24 | 0.79 | inactive |
| Zfand2b (zinc finger, AN1 type domain 2B) | high cell count without drug only | 0.45 | 2.19 | -0.79 | 0.98 | inactive |
| Dio3 (deiodinase, iodothyronine type III) | no change with or without drug | 0.9 | -0.17 | 1.24 | 1.02 | inactive |
| Taf1a | no change with or without drug | -0.22 | -1.52 | 1.01 | 0.92 | inactive |
| Gemin4 (gem nuclear organelle associated protein 4) | no change with or without drug | 0.45 | 1.52 | -0.45 | 0.98 | inactive |
| Hsd17b8 (hydroxysteroid 17-beta dehydrogenase 8) | no change with or without drug | 0 | 0.17 | 0 | 0.94 | inactive |
| Or2z8 (olfactory receptor family 2 subfamily Z member 8) | no change with or without drug | -0.45 | 0.84 | -0.9 | 0.9 | inactive |
| A530095I07Rik (RIKEN cDNA A530095I07 gene) | no change with or without drug | 0.56 | -0.51 | 1.12 | 0.99 | inactive |
| Slc3a1 | no change with or without drug | 0 | 0.84 | -0.45 | 0.94 | inactive |
| Cxcl11 (chemokine (C-X-C motif) ligand 11) | no change with or without drug | -1.12 | 0 | -1.12 | 0.84 | inactive |
| Ifi47 (interferon gamma inducible protein 47) | no change with or without drug | -0.9 | 0.17 | -0.9 | 0.86 | inactive |
| Abcc10 (ATP-binding cassette, sub-family C member 10) | no change with or without drug | -1.8 | 0.17 | -1.91 | 0.78 | inactive |
| Vmn1r46 (vomeronasal 1 receptor 46) | no change with or without drug | -0.9 | 0.17 | -0.9 | 0.86 | inactive |
| Ccdc187 (coiled-coil domain containing 187) | no change with or without drug | -1.12 | 0.84 | -1.57 | 0.84 | inactive |
| Rhobtb3 (Rho-related BTB domain containing 3) | no change with or without drug | 0.79 | 0.34 | 0.67 | 1.01 | inactive |
| Or10d1c (olfactory receptor family 10 subfamily D member 1C) | no change with or without drug | 0.56 | -0.84 | 1.35 | 0.99 | inactive |
| Or4f6 (olfactory receptor family 4 subfamily F member 6) | no change with or without drug | -0.45 | -1.35 | 0.56 | 0.9 | inactive |
| Svs3a (seminal vesicle secretory protein 3A) | no change with or without drug | 0.45 | -0.51 | 1.01 | 0.98 | inactive |
| Reg2 (regenerating islet-derived 2) | low cell count with and without drug | -3.15 | -3.2 | -1.24 | 0.66 | inactive |

Looked up above.
Result of Ccdc187 (coiled-coil domain containing 187) under “combined z-score class”: no change with or without drug
Tab3 (TGF-beta activated kinase 1/MAP3K7 binding protein 3), viability z-score without drug: 0.84
